Source: PubChem BioAssay AID912 (NCATS, 2007).

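A cell-based FRET test of anthrax lethal toxin entry, tracked through the 460 nm emission signal; the cell line is not named here.
Each compound was tested as a concentration series from about 0.0005 to 40 µM.
The number is the fitted AC50 of the 460 nm signal alone; lower values mean a more potent effect. A falling signal goes with compounds filed as inhibitors or cytotoxic, a rising one with activators or fluorescent compounds (inferred from the filed classes).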

Values are in µM.
Common to all entries: measured here: 460 nm channel.
Part of the compounds only, not a random draw; the main read-out is not listed here.
A potency from a partial, single-point or poor curve is only a rough figure.
The first word of each remark tells which way the curve ran; it can be opposite to the aim of the assay.

CCCC(=O)Nc1ccccc1NC(=O)C1CCCCC1 read AC50 0.7943 µM (falling, full curve).
O=C(c1cnccn1)N1CCC[C@@]2(CCN(c3cccc(-c4ccccc4)c3)C2)C1 read AC50 2.512 µM (rising, full curve).
C=CC(=O)OCCOCCOCCOCCOC(=O)C=C read AC50 7.943 µM (falling, full curve).
Cc1cc(C#N)c(C)n1-c1cc(C(F)(F)F)ccc1N1CCOCC1 read AC50 12.59 µM (rising, single point).
CCOC(=O)CN1C(=O)C(C)(C)Oc2ccc(C(=O)Nc3ccccc3OC)cc21 read AC50 1 µM (falling, full curve).
CC(C)(C)Cn1nc(-c2ccc(Cl)cc2)c2c(N)ncnc21 read AC50 2.512 µM (falling, full curve, poor fit).
O=C(NCCCN1CCCCCC1)[C@@H](c1ccccc1)C1CCCCC1 read AC50 0.001 µM (rising, full curve, poor fit).
CCOc1ccc(NC(=O)c2cccnc2C(=O)O)cc1 read AC50 0.1995 µM (rising, partial curve).
CCNC(=O)C1CC(=O)N(Cc2ccc3c(c2)OCO3)C(=Nc2ccc(OCC)cc2)S1 (stereo not given) read AC50 3.162 µM (falling, single point).
Cc1cc(C)c2c(N=CN(C)C)c(C(=O)N3CCN(c4ncccn4)CC3)sc2n1 read AC50 25.12 µM (rising, single point).
COc1ccccc1NC(=O)Cn1nc(C(F)(F)F)c2c1CCCC2 read AC50 7.943 µM (falling, partial curve).
Cc1[nH]c2ccc(O)cc2c1CCN read AC50 10 µM (falling, partial curve).
O=C(Cc1cccs1)NCc1cccs1 read AC50 0.003981 µM (falling, full curve, poor fit).
Cc1ccc2c(c1)c1c3n2CCN(C(=O)Cn2c(-c4ccccc4)noc2=O)C3CCC1 (stereo not given) read AC50 25.12 µM (falling, single point).
Cc1ccc(C)c(N2CCN(C(=O)c3cc(S(=O)(=O)N4CCOCC4)ccc3F)CC2)c1 read AC50 15.85 µM (rising, single point).
CCCCOC(=O)c1ccc(O)cc1 read AC50 31.62 µM (falling, single point).
c1ccc(-n2cnc3cc(NCc4ccncc4)ccc32)cc1 read AC50 1.259 µM (rising, partial curve).
O=C(CSC1=NC(=O)C(Cc2ccccc2)C(=O)N1)NC1CCCCC1 (stereo not given) read AC50 31.62 µM (rising, single point).
COC(=O)c1ccc(CSc2nc3ccccc3s2)o1 read AC50 25.12 µM (falling, partial curve).
Cc1ccc2c(c1)N(CC(=O)O)C(=O)CO2 read AC50 1 µM (falling, full curve, poor fit).
CCNc1ncc2nc(-c3cccs3)c(=O)n(Cc3cccc(OC)c3)c2n1 read AC50 3.981 µM (rising, partial curve).
CCn1c(CNc2ccccc2Cl)nnc1SCCN1CCCCC1 read AC50 5.012 µM (falling, single point).
Cc1ccc(NC(=O)c2cccc(N(C)C)c2)cc1NC(=O)c1ccc(O)cc1 read AC50 12.59 µM (falling, single point).
COc1ccc(NC(=O)CSc2nnc(Cn3c(=O)sc4ccccc43)n2C)c(OC)c1 read AC50 19.95 µM (rising, single point).
COc1ccc(NC(=O)CSc2nc(O)cc(=O)n2-c2ccccc2OC)cc1 read AC50 12.59 µM (rising, single point).
Cc1cc(C)c2c(=O)n(CC(=O)N3CCC(N4CCCCC4)CC3)sc2n1 read AC50 3.162 µM (falling, partial curve).
CCOC(=O)c1cnc2c(Cl)c(Cl)ccc2c1N1CCN(C)CC1 read AC50 10 µM (rising, partial curve).
COc1ccc(NC(=O)CSc2nnc(-c3ccco3)n2C)cc1 read AC50 1.585 µM (rising, partial curve).
CN(C)c1ncc2nc(-c3cccs3)c(=O)n(C[C@H]3CCCO3)c2n1 read AC50 0.7943 µM (rising, full curve).
COc1ccccc1-c1nc(NCc2cccs2)c2ccccc2n1 read AC50 31.62 µM (falling, single point).
COc1ccccc1C(=O)N(Cc1nc(-c2ccc(Cl)cc2)no1)C(C)C read AC50 12.59 µM (falling, partial curve).
NC(=O)NOC[C@@H]1NC(=O)NC1=O read AC50 1 µM (falling, single point).
O=C(Nc1ccccc1)N1CCn2c(nc3ccccc32)C1 read AC50 5.012 µM (rising, single point).
Cc1ccc(-n2nnc3ccccc3c2=O)cc1C read AC50 15.85 µM (falling, partial curve).
CC1CC(C)CN(CCCNC(=O)c2ccc3c(c2)NC(=O)C(N2CCCCC2)S3)C1 (stereo not given) read AC50 25.12 µM (falling, single point).
O=C(Cn1nc(C(F)(F)F)c2c1CCCC2)Nc1ccc2c(c1)OCO2 read AC50 7.943 µM (falling, partial curve).

Some entries from above, unchanged:

{"compound": "COC(=O)c1ccc(CSc2nc3ccccc3s2)o1", "AC50 (µM)": "25.12", "curve as filed": "falling, partial curve"}
{"compound": "Cc1cc(C)c2c(=O)n(CC(=O)N3CCC(N4CCCCC4)CC3)sc2n1", "AC50 (µM)": "3.162", "curve as filed": "falling, partial curve"}